For at least one compound, name, drawing or mass did not settle the structure.
Test system: hepatocytes
Conditions: FIG. 7 dose response curves

CN(C)[C@@H]1C(O)=C(C(N)=O)C(=O)[C@@]2(O)C(O)=C3C(=O)c4c(O)cccc4[C@@](C)(O)[C@H]3C[C@@H]12 [Tetracycline]
total area of the granules within a population of cells (on a per cell basis) versus drug concentration: the same response is visible
